Our source for the binding values is paper doi:10.1101/2023.10.30.563552.

Chains of the proteins cited; added tags and fusions are not shown.
UniProt Q13547: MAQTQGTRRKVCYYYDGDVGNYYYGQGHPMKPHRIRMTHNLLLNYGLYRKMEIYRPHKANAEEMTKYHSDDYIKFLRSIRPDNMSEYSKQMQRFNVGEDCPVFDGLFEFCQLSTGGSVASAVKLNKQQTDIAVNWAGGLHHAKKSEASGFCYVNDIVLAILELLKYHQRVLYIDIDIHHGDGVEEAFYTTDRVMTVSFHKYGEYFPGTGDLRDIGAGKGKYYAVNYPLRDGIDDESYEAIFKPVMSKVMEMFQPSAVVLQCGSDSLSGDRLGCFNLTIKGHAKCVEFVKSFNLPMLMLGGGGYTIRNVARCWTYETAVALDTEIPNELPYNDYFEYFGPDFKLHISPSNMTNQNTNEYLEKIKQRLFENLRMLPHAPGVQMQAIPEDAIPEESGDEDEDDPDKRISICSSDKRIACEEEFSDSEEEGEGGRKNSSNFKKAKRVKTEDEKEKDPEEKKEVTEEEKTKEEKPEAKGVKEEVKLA

Results are given in words; binding and its absence hold for the method and conditions named. Binding seen in cells or lysates may run through a third protein. Some binding calls cover weakened binding; strength is not graded here.

The target of the experiment is T1, JUNB (human (endogenous in CAPAN1 and CAPAN2)) (UniProt P17275).
T1 sequence: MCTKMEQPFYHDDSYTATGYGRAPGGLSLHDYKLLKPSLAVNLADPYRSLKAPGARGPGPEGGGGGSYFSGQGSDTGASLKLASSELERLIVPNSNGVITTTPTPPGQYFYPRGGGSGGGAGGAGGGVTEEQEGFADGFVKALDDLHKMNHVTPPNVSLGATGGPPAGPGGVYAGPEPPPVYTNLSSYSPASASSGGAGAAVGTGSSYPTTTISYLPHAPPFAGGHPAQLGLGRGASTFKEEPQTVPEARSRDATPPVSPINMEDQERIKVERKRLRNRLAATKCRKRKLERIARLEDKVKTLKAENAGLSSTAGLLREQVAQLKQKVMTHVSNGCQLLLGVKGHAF
The experiment in a line: co-IP.

With HDAC1 (from UniProt Q13547 1-482), the binding result is recorded as “binds”.
